Data on one molecule can be found in article PMC5682672.

By UniProt entry, the sequences of proteins in these tests, tags left out. Residues count along the entry.
UniProt Q15375, residues 28-998: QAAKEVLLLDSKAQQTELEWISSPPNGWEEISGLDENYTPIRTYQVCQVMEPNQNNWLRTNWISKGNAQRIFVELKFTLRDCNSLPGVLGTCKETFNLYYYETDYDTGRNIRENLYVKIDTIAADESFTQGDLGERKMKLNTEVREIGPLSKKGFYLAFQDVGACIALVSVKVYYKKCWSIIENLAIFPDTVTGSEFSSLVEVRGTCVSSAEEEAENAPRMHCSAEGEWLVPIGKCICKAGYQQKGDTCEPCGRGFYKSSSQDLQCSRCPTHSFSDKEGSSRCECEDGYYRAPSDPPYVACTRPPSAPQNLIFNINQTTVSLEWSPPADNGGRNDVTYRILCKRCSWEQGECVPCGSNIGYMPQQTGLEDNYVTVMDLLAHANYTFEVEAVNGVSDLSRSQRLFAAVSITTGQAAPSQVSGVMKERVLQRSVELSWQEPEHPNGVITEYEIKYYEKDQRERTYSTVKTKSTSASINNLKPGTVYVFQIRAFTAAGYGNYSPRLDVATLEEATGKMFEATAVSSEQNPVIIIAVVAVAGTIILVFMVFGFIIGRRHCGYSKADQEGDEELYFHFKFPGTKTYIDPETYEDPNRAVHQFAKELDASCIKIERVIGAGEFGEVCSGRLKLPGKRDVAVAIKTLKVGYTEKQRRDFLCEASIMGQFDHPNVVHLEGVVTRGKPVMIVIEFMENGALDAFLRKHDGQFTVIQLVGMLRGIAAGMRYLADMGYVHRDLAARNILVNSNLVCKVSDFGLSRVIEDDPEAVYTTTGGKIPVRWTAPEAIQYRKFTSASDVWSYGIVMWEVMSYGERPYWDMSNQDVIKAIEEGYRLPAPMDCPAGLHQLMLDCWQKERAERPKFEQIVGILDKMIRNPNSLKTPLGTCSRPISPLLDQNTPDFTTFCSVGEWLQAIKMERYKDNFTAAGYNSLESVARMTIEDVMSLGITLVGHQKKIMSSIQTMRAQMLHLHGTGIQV

For the test, the target named is EphA7 receptor (human (endogenous in LNCaP)) (UniProt Q15375). The test is described as follows: co-IP; endogenous proteins in LNCaP cell lysates; cells lysed and immunoprecipitated with an EphA7-specific antibody (CST), western blot. On the technique in general: Immunoblotting shows a protein as a band on a membrane.

No constants are given. Whether binding was seen depends on the method and setting. In cells and extracts the contact can be indirect. Some entries that bind do so weakly or less than the wild type.

B1: ephrinA5 ligand (ligand, UniProt P52803 21-203)
chain: QDPGSKAVADRYAVYWNSSNPRFQRGDYHIDVCINDYLDVFCPHYEDSVPEDKTERYVLYMVNFDGYSACDHTSKGFKRWECNRPHSPNGPLKFSEKFQLFTPFSLGFEFRPGREYFYISSAIPDNGRRSCLKLKVFVRPTNSCMKTIGVHDRVFDVNDKVENSLEPADDTVHESAEPSRGEN
With B1, the binding result was “binds”.
